# From the supplement of paper PMC4604168 (melanoma cell lines)
# This is one part of the list. Single values are uncertain, as repeats are few or missing.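 Cells were imaged in 1,536-well plates, and nuclei stained with an antibody against cleaved PARP were counted against all DNA-stained nuclei to give the apoptosis fraction. Screening doses were chosen to leave most cells alive, and resting and induced cleaved-PARP levels differ strongly between cell lines.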
# Legend:
# Assay in all cases: cleaved PARP positive nuclei fraction relative to DMSO control; melanoma cells; higher = more apoptosis
# Conditions in all cases: library dose: low library concentration; 72 h
# 501Mel = system: 501Mel
# A101D = system: A101D
# A2058 = system: A2058
# A375 = system: A375
# C32 = system: C32
# CBRC008 = system: CBRC008 (line from a melanoma biopsy)
# CBRC013 = system: CBRC013 (line from a melanoma biopsy)
# CBRC014 = system: CBRC014 (line from a melanoma biopsy)
# CBRC016 = system: CBRC016 (line from a melanoma biopsy)
# CBRC017 = system: CBRC017 (line from a melanoma biopsy)
# COLO792 = system: COLO792
# COLO800 = system: COLO800
# COLO829 = system: COLO829
# G361 = system: G361
# IPC-298 = system: IPC-298
# IST-MEL1 = system: IST-MEL1
# LB2518-MEL = system: LB2518-MEL
# LOXIMVI = system: LOXIMVI
# MEL-HO = system: MEL-HO
SMILES,cleaved PARP positive nuclei fraction (501Mel) [%],cleaved PARP positive nuclei fraction (A101D) [%],cleaved PARP positive nuclei fraction (A2058) [%],cleaved PARP positive nuclei fraction (A375) [%],cleaved PARP positive nuclei fraction (C32) [%],cleaved PARP positive nuclei fraction (CBRC008) [%],cleaved PARP positive nuclei fraction (CBRC013) [%],cleaved PARP positive nuclei fraction (CBRC014) [%],cleaved PARP positive nuclei fraction (CBRC016) [%],cleaved PARP positive nuclei fraction (CBRC017) [%],cleaved PARP positive nuclei fraction (COLO792) [%],cleaved PARP positive nuclei fraction (COLO800) [%],cleaved PARP positive nuclei fraction (COLO829) [%],cleaved PARP positive nuclei fraction (G361) [%],cleaved PARP positive nuclei fraction (IPC-298) [%],cleaved PARP positive nuclei fraction (IST-MEL1) [%],cleaved PARP positive nuclei fraction (LB2518-MEL) [%],cleaved PARP positive nuclei fraction (LOXIMVI) [%],cleaved PARP positive nuclei fraction (MEL-HO) [%]
"Nc1ccn([C@@H]2O[C@H](CO)[C@@H](O)C2(F)F)c(=O)n1 [gemcitabine] + CN(C)S(=O)(=O)c1ccc2c(c1)/C(=C/c1cc3c([nH]1)CCCC3)C(=O)N2 [SU6656] (first compound 0.0004 µM, partner dose 0.4 µM)",85.7,72.7,142,95.4,86.7,223,132,123,227,105,79.1,50.6,108,182,49.7,77.2,104,120,146
"CS(=O)(=O)CCNCc1ccc(-c2ccc3ncnc(Nc4ccc(OCc5cccc(F)c5)c(Cl)c4)c3c2)o1 [lapatinib] + O=C(O)c1ccc(-c2c[nH]c3ncc(-c4ccccc4)cc23)cc1C1CCCC1 [GSK650394] (first compound 0.8 µM, partner dose 0.16 µM)",77.2,49.3,104,158,85.7,89.5,140,90.9,82.3,110,61.7,170,86.4,52.5,662,39.6,112,70.7,194
"CCCS(=O)(=O)Nc1ccc(F)c(C(=O)c2c[nH]c3ncc(Cl)cc23)c1F + Cc1ccc(NC(=O)c2cccc(N(C)C)c2)cc1NC(=O)c1ccc(O)cc1 [ZM336372] (first compound 0.08 µM, partner dose 2 µM)",114,43.9,84.7,91.9,58.4,114,84.9,206,109,240,89.4,61.6,106,151,108,103,157,63.4,162
"CN1CCN(c2ccc3nc(-c4c(N)c5c(F)cccc5[nH]c4=O)[nH]c3c2)CC1 [Dovitinib] + CC1(C)NC(=O)N(c2ccc([N+](=O)[O-])c(C(F)(F)F)c2)C1=O [nilutamide] (first compound 0.1 µM, partner dose 1 µM)",122,41.4,77.2,54.8,30,54.2,127,76.3,56.2,61.6,27.5,81,82.7,52.4,266,50.9,80.2,82.7,135
"O=C(O)[C@@H]1[O][Sb](=[O])([O][Sb]2(=[O])[O][C@H]([C@H](O)CO)[C@H](O)[C@H](C(=O)O)[O]2)[O][C@H]([C@H](O)CO)[C@@H]1O (stereo partly drawn) [stibogluconate] + NCC(=O)Nc1ccc(-n2nc(C(F)(F)F)cc2-c2ccc3c(ccc4ccccc43)c2)cc1 [OSU03012] (first compound 2 µM, partner dose 1 µM)",96,91.2,107,1570,43.7,51.3,72.7,75.1,111,115,137,89.2,55.7,75.4,94.1,67.9,145,70.1,67.4
"O=C(O)c1ccc2c(c1)nc(Nc1cccc(Cl)c1)c1ccncc12 + C[C@@H]1CCN(C(=O)CC#N)C[C@@H]1N(C)c1ncnc2[nH]ccc12 [CP690550] (first compound 0.4 µM, partner dose 1 µM)",42.2,75.6,149,42.1,49.7,53.6,109,159,235,183,146,54.7,91.6,34.7,47,130,95.1,133,35.2
"Nc1ncn([C@H]2C[C@H](O)[C@@H](CO)O2)c(=O)n1 [decitabine] + CN(NC(=O)CC(=O)NN(C)C(=S)c1ccccc1)C(=S)c1ccccc1 [STA4783] (first compound 0.1 µM, partner dose 0.006 µM)",106,89,40.8,79.4,40.2,227,116,111,153,112,165,87.4,200,115,145,168,104,333,164
"C[C@@H](Oc1cc(-c2cnn(C3CCNCC3)c2)cnc1N)c1c(Cl)ccc(F)c1Cl [Crizotinib] + O=C(CCCCCCC(=O)Nc1ccccc1)NO [vorinostat] (first compound 0.2 µM, partner dose 0.08 µM)",168,85.2,56.4,63.6,31,101,104,75,145,69.9,119,44,276,108,22.8,48.2,98.2,21,70.8
"O=C(O)[C@@H]1[O][Sb](=[O])([O][Sb]2(=[O])[O][C@H]([C@H](O)CO)[C@H](O)[C@H](C(=O)O)[O]2)[O][C@H]([C@H](O)CO)[C@@H]1O (stereo partly drawn) [stibogluconate] + CO[C@@H]1[C@H](N(C)C(=O)c2ccccc2)C[C@H]2O[C@]1(C)n1c3ccccc3c3c4c(c5c6ccccc6n2c5c31)C(=O)NC4 [Midostaurin] (first compound 2 µM, partner dose 0.08 µM)",90.3,167,86.3,104,185,219,141,90.7,126,92.7,116,58.6,140,109,143,201,95.5,247,38.9
"CCCS(=O)(=O)Nc1ccc(F)c(C(=O)c2c[nH]c3ncc(Cl)cc23)c1F + COc1cc(Nc2ncc(F)c(Nc3ccc4c(n3)NC(=O)C(C)(C)O4)n2)cc(OC)c1OC [Tamatinib] (first compound 0.08 µM, partner dose 0.4 µM)",175,118,133,121,63.2,257,122,74.4,79.6,88.8,249,90.2,56.6,194,30.1,153,111,54.6,106
"Cn1c(=O)n(-c2ccc(C(C)(C)C#N)cc2)c2c3cc(-c4cnc5ccccc5c4)ccc3ncc21 + COc1cc(Nc2ncc(F)c(Nc3ccc4c(n3)NC(=O)C(C)(C)O4)n2)cc(OC)c1OC [Tamatinib] (first compound 0.004 µM, partner dose 0.4 µM)",75.2,75.2,34.5,75.5,61.6,305,99.4,187,74.2,221,282,25,113,155,62.2,121,116,48.5,318
"Nc1ccn([C@@H]2O[C@H](CO)[C@@H](O)C2(F)F)c(=O)n1 [gemcitabine] + NCC(=O)Nc1ccc(-n2nc(C(F)(F)F)cc2-c2ccc3c(ccc4ccccc43)c2)cc1 [OSU03012] (first compound 0.0004 µM, partner dose 1 µM)",141,92.1,199,4040,70.7,135,113,114,221,100,133,170,136,116,247,88,34.6,89.4,215
"Cn1c(=O)n(-c2ccc(C(C)(C)C#N)cc2)c2c3cc(-c4cnc5ccccc5c4)ccc3ncc21 + CO[C@@H]1[C@H](N(C)C(=O)c2ccccc2)C[C@H]2O[C@]1(C)n1c3ccccc3c3c4c(c5c6ccccc6n2c5c31)C(=O)NC4 [Midostaurin] (first compound 0.004 µM, partner dose 0.08 µM)",73,106,126,79.2,25.3,87.5,65.1,76.3,30.1,79.2,130,211,124,294,25.4,209,140,163,87.2
"CS(=O)(=O)CCNCc1ccc(-c2ccc3ncnc(Nc4ccc(OCc5cccc(F)c5)c(Cl)c4)c3c2)o1 [lapatinib] + O=C(CCCCCCC(=O)Nc1ccccc1)NO [vorinostat] (first compound 0.8 µM, partner dose 0.08 µM)",124,169,152,71.7,232,410,65.1,84.8,89,90.9,155,59.3,70.4,157,43.4,108,366,67.1,140
"CCCS(=O)(=O)Nc1ccc(F)c(C(=O)c2c[nH]c3ncc(Cl)cc23)c1F + O=C(Nc1cccc(Cl)c1)Nc1ncc(CCNc2ncnc3ccsc23)s1 [SNS314] (first compound 0.08 µM, partner dose 0.0008 µM)",90,88.8,54.4,247,61.3,111,98.3,23.1,107,107,85.7,29.7,146,131,47.8,210,45.5,35.9,66.8
"CNC(=O)c1cc(Oc2ccc(NC(=O)Nc3ccc(Cl)c(C(F)(F)F)c3)cc2)ccn1 [sorafenib] + CC(C)(C)c1cnc(CSc2cnc(NC(=O)C3CCNCC3)s2)o1 [SNS-032] (first compound 0.4 µM, partner dose 0.01 µM)",90.4,80.9,115,35.3,239,149,132,212,58.8,98,40.2,18.5,37,63.6,173,212,43.5,62.4,35.5
"CNC(=O)c1cc(Oc2ccc(NC(=O)Nc3ccc(Cl)c(C(F)(F)F)c3)cc2)ccn1 [sorafenib] + Cc1ccc(NC(=O)c2cccc(N(C)C)c2)cc1NC(=O)c1ccc(O)cc1 [ZM336372] (first compound 0.4 µM, partner dose 2 µM)",181,87,86.8,48.1,131,116,73.3,77.2,73.5,107,54.9,61.2,92.2,74,184,1330,86.3,18.7,66.4

# Two entries from above, bar-delimited.
SMILES | cleaved PARP positive nuclei fraction (501Mel) [%] | cleaved PARP positive nuclei fraction (A101D) [%] | cleaved PARP positive nuclei fraction (A2058) [%] | cleaved PARP positive nuclei fraction (A375) [%] | cleaved PARP positive nuclei fraction (C32) [%] | cleaved PARP positive nuclei fraction (CBRC008) [%] | cleaved PARP positive nuclei fraction (CBRC013) [%] | cleaved PARP positive nuclei fraction (CBRC014) [%] | cleaved PARP positive nuclei fraction (CBRC016) [%] | cleaved PARP positive nuclei fraction (CBRC017) [%] | cleaved PARP positive nuclei fraction (COLO792) [%] | cleaved PARP positive nuclei fraction (COLO800) [%] | cleaved PARP positive nuclei fraction (COLO829) [%] | cleaved PARP positive nuclei fraction (G361) [%] | cleaved PARP positive nuclei fraction (IPC-298) [%] | cleaved PARP positive nuclei fraction (IST-MEL1) [%] | cleaved PARP positive nuclei fraction (LB2518-MEL) [%] | cleaved PARP positive nuclei fraction (LOXIMVI) [%] | cleaved PARP positive nuclei fraction (MEL-HO) [%]
O=C(O)c1ccc2c(c1)nc(Nc1cccc(Cl)c1)c1ccncc12 + C[C@@H]1CCN(C(=O)CC#N)C[C@@H]1N(C)c1ncnc2[nH]ccc12 [CP690550] (first compound 0.4 µM, partner dose 1 µM) | 42.2 | 75.6 | 149 | 42.1 | 49.7 | 53.6 | 109 | 159 | 235 | 183 | 146 | 54.7 | 91.6 | 34.7 | 47 | 130 | 95.1 | 133 | 35.2
Nc1ncn([C@H]2C[C@H](O)[C@@H](CO)O2)c(=O)n1 [decitabine] + CN(NC(=O)CC(=O)NN(C)C(=S)c1ccccc1)C(=S)c1ccccc1 [STA4783] (first compound 0.1 µM, partner dose 0.006 µM) | 106 | 89 | 40.8 | 79.4 | 40.2 | 227 | 116 | 111 | 153 | 112 | 165 | 87.4 | 200 | 115 | 145 | 168 | 104 | 333 | 164
